Settings: human, in vivo

With Cc1ccc(=O)n(-c2ccccc2)c1 [Pirfenidone, 5-methyl-1-phenyl-2-(1H)-pyridone] the “AUC0-∞ higher with coadministration of ciprofloxacin on Day 6/7 compared with Day 1/2” value was “approximately 78%”.
